No constants are given. Whether binding was seen depends on the method and setting. Some entries that bind do so weakly or less than the wild type. For some assays here: Tags and fused reporters may be left off the sequences shown.
Experiments:
[1] = molecular target: 6×His-TEV-hAhR(1–287) (human) (UniProt P35869); test: co-purification (His-tag affinity, then ion-exchange or heparin and/or size-exclusion chromatography); 6×His-tagged Class I protein and untagged ARNT or ARNT2 co-expressed from one baculovirus (insect cells) or two plasmids (E. coli); His-tag purification in 500 mM NaCl, tag removed by TEV, further chromatography; gives untagged heterodimers
[2] = molecular target: T1, Truncated mNPAS4 (1–329), 6×His-TEV leader (mouse) (UniProt Q8BGD7); test: as above
T1 sequence: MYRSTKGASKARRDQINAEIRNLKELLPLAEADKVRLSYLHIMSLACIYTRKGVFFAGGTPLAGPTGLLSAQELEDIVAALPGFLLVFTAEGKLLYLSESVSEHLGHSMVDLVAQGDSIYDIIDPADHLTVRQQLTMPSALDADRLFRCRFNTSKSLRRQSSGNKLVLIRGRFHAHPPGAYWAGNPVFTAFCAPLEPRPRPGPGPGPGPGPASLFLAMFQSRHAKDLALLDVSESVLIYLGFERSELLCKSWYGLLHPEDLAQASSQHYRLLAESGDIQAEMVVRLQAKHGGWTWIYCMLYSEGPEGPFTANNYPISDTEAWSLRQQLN

Amino acid sequences for entries named in this document (tags omitted). Residues count along the entry.
UniProt P35869, residues 1-287: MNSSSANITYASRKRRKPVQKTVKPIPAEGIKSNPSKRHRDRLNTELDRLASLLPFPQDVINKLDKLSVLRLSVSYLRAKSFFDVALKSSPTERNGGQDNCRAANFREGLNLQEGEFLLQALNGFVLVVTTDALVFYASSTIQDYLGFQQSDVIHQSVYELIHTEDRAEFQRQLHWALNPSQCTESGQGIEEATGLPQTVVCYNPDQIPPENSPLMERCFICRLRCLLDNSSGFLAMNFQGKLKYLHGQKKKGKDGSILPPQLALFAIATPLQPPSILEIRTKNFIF
UniProt P27540, residues 1-362: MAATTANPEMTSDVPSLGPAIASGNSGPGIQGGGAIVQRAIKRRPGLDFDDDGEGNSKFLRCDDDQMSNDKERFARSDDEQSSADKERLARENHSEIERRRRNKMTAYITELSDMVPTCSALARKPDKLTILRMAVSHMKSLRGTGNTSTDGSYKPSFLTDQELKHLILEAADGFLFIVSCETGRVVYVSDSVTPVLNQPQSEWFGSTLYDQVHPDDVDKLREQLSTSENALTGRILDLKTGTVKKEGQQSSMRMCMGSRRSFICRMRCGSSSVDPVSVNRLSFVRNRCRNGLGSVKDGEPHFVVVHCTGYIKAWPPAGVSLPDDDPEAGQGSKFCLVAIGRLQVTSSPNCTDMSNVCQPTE
UniProt Q61324, residues 1-481: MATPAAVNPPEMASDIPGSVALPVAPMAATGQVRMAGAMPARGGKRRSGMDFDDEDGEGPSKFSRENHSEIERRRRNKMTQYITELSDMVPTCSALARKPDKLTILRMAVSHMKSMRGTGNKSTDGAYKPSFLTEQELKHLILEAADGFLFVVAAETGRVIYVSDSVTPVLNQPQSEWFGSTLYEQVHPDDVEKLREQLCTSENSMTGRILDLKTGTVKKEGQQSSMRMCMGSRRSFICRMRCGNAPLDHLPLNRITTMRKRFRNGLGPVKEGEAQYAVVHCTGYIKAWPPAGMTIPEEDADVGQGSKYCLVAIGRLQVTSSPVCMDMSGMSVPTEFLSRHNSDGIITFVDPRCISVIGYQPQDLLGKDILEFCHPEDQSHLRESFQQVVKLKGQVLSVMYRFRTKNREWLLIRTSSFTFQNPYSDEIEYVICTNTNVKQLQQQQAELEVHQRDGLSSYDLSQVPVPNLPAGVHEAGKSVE

Substance | binding [1] | binding [2]
hARNT(1–362) (from UniProt P27540 1-362) (domain or fragment) | binds | 
mARNT2 (1–481), untagged (from UniProt Q61324 1-481) (domain or fragment) |  | binds

— article PMC12774657
